The assay can be described thus: qHTS Assay for Lipid Storage Modulators in Drosophila S3 Cells.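 On cell number change: cells counted by Cell Tracker Red CMTPX staining in the red channel.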 To be noted: BODIPY lipid droplet fluorescence, 18-24 h; for cell number change: measured here: cell count max response, cells fed with added oleic acid. Summed up:
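Laser-scanning cytometry quantifies lipid droplet accumulation (500–530 nm total intensity; droplet/cell object ratio) in oleic acid-fed (400 uM added) Drosophila S3 cells treated with a concentration series. 20 uM Triacsin C defined 100% inhibition.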
(In general: qHTS replaces the single test concentration by a dilution series.)

Setting [1] is: measured here: lipid fluorescence (Fed channel) AC50, cells fed with added oleic acid.
Setting [2] is: measured here: cell number channel AC50, cells fed with added oleic acid.

Some of the results follow. The main result of the screen is listed elsewhere. These columns were measured beside it and carry no call. The list favours compounds with an active or inconclusive main result. Potencies come from curve fits of mixed quality, noted in brackets.

In the case of `O=C(CSc1ncnc2ccccc12)c1ccc2c(c1)OCCO2`, the cell number change is -3.91%.
Same read-out and setting: under `Cc1ccccc1Cn1cc(NC(=O)c2noc(C(C)C)c2[N+](=O)[O-])cn1` stands -12.7%.
As usually defined, the AC50 is the concentration at which the activity in the assay is half-maximal. With `Cc1cccc(N2CCN(S(=O)(=O)c3ccc4[nH]c(=O)ccc4c3)CC2)c1C`, the cell number change is -28%. In addition, under setting [1], the AC50 was 18.4 µM [falling, single point].
`Cc1ccc(-c2noc(C3CCCN(C(=O)c4ccccc4Br)C3)n2)o1` (stereo not drawn): the cell number change was -7.89%.
Take `CNC[C@H](O)c1ccc(O)c(O)c1`: the cell number change turned out to be 8.54%. The AC50 under setting [1] was 0.00461 µM [rising, full curve, poor fit].
For the molecule `OC1O[C@H](c2ccc3c(c2)OCO3)[C@H]2CO[C@H](c3ccc4c(c3)OCO4)[C@@H]12` (stereo partly drawn), the cell number change is 26%. Moreover, the AC50 under setting [1] was 0.517 µM [rising, full curve, poor fit].
Take `C=CCN1CCN(C(=O)CCCc2ccccc2)CC1`: the cell number change is 12.2%. For the same molecule, under setting [1], the AC50 was 2.31 µM [rising, partial curve, poor fit].
For the molecule `CNC(=O)c1cc2c(=O)n3cc(C)ccc3nc2n(C(C)C)c1=N`, the cell number change is -1.04%.
On to `CCOc1ccc(CCNC(=O)COC(=O)c2cc(OC)c(OC)c(OC)c2)cc1OCC`, for which the cell number change was -41%. For the same molecule, the AC50 under setting [2] is 29.1 µM [falling, single point]. Further, the AC50 under setting [1] is 29.1 µM [falling, single point].
Take `O=C(Cn1cc(C(F)(F)F)ccc1=O)Nc1cc(S(=O)(=O)N2CCOCC2)ccc1Cl`: the cell number change came out at 16.9%.
On to `Cc1sc2nc(SCC(=O)O)[nH]c(=O)c2c1C`, for which the cell number change is -11.5%. The AC50 under setting [1] was 4.61 µM [falling, full curve, poor fit].
`COc1ccc([N+](=O)[O-])cc1N(CC(O)Cn1nnc2ccccc21)S(=O)(=O)c1ccc(C)cc1` (stereo not drawn): the cell number change is -17.4%. The AC50 under setting [2] was 0.103 µM [falling, full curve, poor fit].
Take `O=C(O)CC/C(=N/NC(=O)c1ccc(-c2ccccc2)cc1)c1ccccc1`: the cell number change was 12.9%. Besides, the AC50 under setting [2] was 6.51 µM [rising, partial curve].
For the molecule `COC(=O)c1ccccc1SC1CC(=O)N(c2cccc(C)c2)C1=O` (stereo not drawn), the cell number change was -11.5%. The AC50 under setting [1] is 0.82 µM [falling, full curve].
In the case of `COc1ccc(NC(=S)Nc2ccc3nsnc3c2)cc1`, the cell number change was -23.4%. Also, the AC50 under setting [1] is 0.411 µM [rising, full curve, poor fit].
With `COc1ccc(OC)c(N(CC(=O)NCc2ccncc2)S(C)(=O)=O)c1`, the cell number change was -1.08%. Also, under setting [1], the AC50 was 6.51 µM [falling, single point].
As to `COc1ccc(OC)c2c1cc(C(=O)N[C@@H](Cc1ccccc1)C(=O)O)n2C`, the AC50 under setting [1] was 18.4 µM [rising, single point].
For `Cc1c(NC(=O)Nc2cccc(Cl)c2)c(=O)n(-c2ccccc2)n1C`, the cell number change is -45.5%. The AC50 under setting [2] is 14.6 µM [falling, partial curve, poor fit]. For the same molecule, under setting [1], the AC50 is 2.06 µM [falling, single point].
Regarding `Cc1cc(C)c(-c2cc(C)nc3ncnn23)c(C)c1`, the AC50 under setting [2] was 0.291 µM [falling, full curve, poor fit].
Take `CNC(=O)COC(=O)Cc1ccc(Cl)cc1`: the cell number change was -10.3%. For the same molecule, the concentration at half-maximal activity (AC50) under setting [1] is 4.11 µM [rising, single point].
On to `COCCNC(=O)c1c(N)n(-c2cccc(C)c2)c2nc3ccccc3nc12`, for which the cell number change was -74.3%. Besides, the AC50 under setting [2] is 25.9 µM [falling, partial curve]. The AC50 under setting [1] is 29.1 µM [falling, single point].
As to `O=C(NCCCn1ccnc1)c1nn2c(C(F)(F)F)cc(-c3ccc(Br)cc3)nc2c1Cl`, the cell number change was -47.7%. Under setting [2], the AC50 is 29.1 µM [falling, single point]. Besides, under setting [1], the AC50 was 1.84 µM [falling, partial curve].
As to `CCC(CC)c1nnc(NC(=O)c2ccc(N3CCCCC3)c([N+](=O)[O-])c2)s1`, the cell number change was -65.2%. Moreover, the AC50 under setting [2] was 29.1 µM [falling, single point]. Moreover, the concentration at half-maximal activity (AC50) under setting [1] is 29.1 µM [falling, single point].
For the molecule `O=C(CSc1nc(O)c(C(c2ccccc2)c2ccccc2)c(=O)[nH]1)N1CCOCC1`, the cell number change is -12.5%.
Regarding `Cc1cccc(NC(=O)CN2CCN(C(=O)c3c(C)nn(Cc4ccccc4)c3C)CC2)c1C`, the cell number change is -20.6%.
Take `Cc1nc2ccccn2c1C(=O)C(=O)Nc1cc(F)ccc1F`: the AC50 under setting [2] is 4.61 µM [falling, partial curve].
In the case of `COc1ccc(C2NC(=O)c3n[nH]c(C)c32)c(OC)c1` (stereo not drawn), the cell number change is -3.35%.
Turning to `Cn1c(NC(=O)c2cccs2)c(-c2cccs2)c(=O)c2ccccc21`, the cell number change was 3.63%. Further, the AC50 under setting [1] is 1.16 µM [rising, full curve, poor fit].
With `c1ccc2c(c1)OCC(c1nn3c(Cn4nnc5ccccc54)nnc3s1)O2` (stereo not drawn), the AC50 was 2.06 µM [rising, partial curve] under setting [2] and 0.731 µM [rising, single point] under setting [1].
Take `CC(=O)c1ccc(N2CCN(C(=O)CCCn3c(=O)[nH]c4ccc(Br)cc4c3=O)CC2)cc1`: the cell number change is -12.3%. Moreover, the AC50 under setting [2] was 0.13 µM [rising, full curve].
With `COc1ccccc1N1CCN(C(=O)C2CC=CCC2C(=O)O)CC1` (stereo not drawn), the cell number change was found to be 5.75%. Further, the half-maximal activity concentration (AC50) under setting [1] was 0.731 µM [falling, single point].
`COc1ccc(-n2c(SCCC#N)nnc2-c2cc(Cl)ccc2OC)cc1Cl`: the cell number change was -9.78%. The AC50 under setting [1] was 11.6 µM [rising, single point].
Regarding `Cc1ccc(C(=O)NNC(=S)NCC2CCCO2)cc1[N+](=O)[O-]` (stereo not drawn), the cell number change is 25.1%.
For the molecule `CC(C)(C)OC(=O)N1CCC(C(=O)N2CCOCC2)CC1`, the cell number change was -14%. For the same molecule, the AC50 under setting [1] was 0.146 µM [falling, full curve, poor fit].
For `Cc1ccc2c(c1)C(c1ccc(F)cc1)N(C(=O)c1ccc(S(=O)(=O)N(C)C)cc1)CC(=O)N2` (stereo not drawn), the AC50 under setting [1] was 0.461 µM [rising, full curve, poor fit].
In the case of `CC1CCCC(NC(=O)CN(C)CC(=O)Nc2cccc(F)c2)C1C` (stereo not drawn), the cell number change was -20.3%. Further, under setting [2], the AC50 was 4.11 µM [falling, single point]. The half-maximal activity concentration (AC50) under setting [1] was 6.51 µM [falling, single point].
Regarding `Cc1nc2ccccc2n1CCCOc1ccccc1`, the cell number change is -20.1%. The AC50 under setting [1] is 29.1 µM [falling, single point].
Take `Cc1cc(Cl)ccc1NC(=S)N1CCN(C(=O)c2ccco2)CC1`: the cell number change was determined as 45.7%. The AC50 under setting [2] was 25.9 µM [rising, single point].
For the molecule `Cc1nc2ccc(Br)cc2c2c1CC(CO)O2` (stereo not drawn), the cell number change came to 14.3%. Under setting [1], the AC50 was 0.0731 µM [rising, full curve, poor fit].
In the case of `COc1ccc(-c2csc(Nc3ncccc3C)n2)cc1`, the cell number change was -24%. Besides, the half-maximal activity concentration (AC50) under setting [1] was 9.2 µM [falling, partial curve, poor fit].
For `Cn1c2ccc(F)cc2c2ncn(CCCN(CCO)CCO)c(=O)c21`, the cell number change was found to be 4.06%.
`O=C1C(=O)N(CCN2CCOCC2)C(c2ccc(Cl)cc2)/C1=C(/O)c1ccc(S(=O)(=O)N2CCOCC2)cc1` (stereo not drawn): the cell number change was determined as 11.3%. For the same molecule, under setting [1], the AC50 is 29.1 µM [rising, single point].
For `COc1ccc(CNC(=O)COC(=O)c2cc(-c3cccs3)nc3ccccc23)cc1OC`, the AC50 runs as follows: under setting [2], 0.116 µM [rising, full curve, poor fit]; under setting [1], 0.13 µM [rising, full curve, poor fit].
Take `Cc1cc(NC(=O)c2ccc(Cl)cc2)n(-c2ccccc2)n1`: the cell number change turned out to be 13.7%. The AC50 under setting [1] was 10.3 µM [rising, partial curve].
Turning to `COc1ccc(CN2C(=O)CS(=O)CC2=O)cc1OC`, the cell number change is -69.3%. In addition, the AC50 under setting [2] is 8.2 µM [falling, partial curve]. The AC50 under setting [1] was 20.6 µM [falling, partial curve].
On to `Cc1nnc2sc(-c3ccc(N(C)C)cc3)nn2c1=O`, for which the cell number change is -30.6%. The concentration at half-maximal activity (AC50) under setting [2] was 0.184 µM [falling, full curve, poor fit].
Turning to `CC(C(=O)NC1CCCC1)N(Cc1ccc2c(c1)OCO2)C(=O)c1snc(C(N)=O)c1N` (stereo not drawn), the cell number change is -14.1%.
In the case of `COc1ccc(/C=C(\NC(=O)c2cccs2)C(=O)NCc2ccco2)cc1OC`, the cell number change is -61.2%. Also, the AC50 under setting [2] was 1.3 µM [falling, full curve]. The AC50 under setting [1] was 16.4 µM [falling, partial curve].
As to `O=C(Cc1n[nH]c(=O)c2ccccc12)OCC(=O)c1ccc(F)cc1`, the cell number change was found to be 14.5%.
Consider `Cc1ccccc1-n1ncc2c1CC(C)(C)CC2NC(=O)C1CCC1` (stereo not drawn), for which the AC50 under setting [2] is 1.64 µM [rising, single point].
`CCC(=O)NC(c1ccc(OC)c(OC)c1)c1cc(Cl)c2cccnc2c1O` (stereo not drawn): the cell number change is -34.9%. In addition, the AC50 under setting [2] was 10.3 µM [falling, partial curve, poor fit]. Besides, the AC50 under setting [1] was 16.4 µM [falling, partial curve, poor fit].
For the molecule `CS(=O)(=O)N(CC(=O)N1CCN(c2ccccc2F)CC1)c1cccc(C(F)(F)F)c1`, the cell number change was -16.9%. Moreover, the AC50 under setting [1] was 2.06 µM [falling, single point].
In the case of `COc1cc(C=O)ccc1OC(=O)c1ccc(C(C)C)cc1`, the cell number change is -42.2%. Besides, the AC50 under setting [2] was 6.51 µM [falling, single point]. Also, the AC50 under setting [1] is 6.51 µM [falling, single point].
Consider `O=C1CNC(=S)N1Cc1ccc(Cl)cc1`, for which the cell number change is -1.3%. Moreover, the AC50 under setting [1] was 0.00461 µM [falling, full curve, poor fit].
Take `COc1ccc(C(=O)COC(=O)CNC(=O)c2cccc(OC(F)F)c2)cc1`: the AC50 was 1.03 µM [falling, partial curve] under setting [2] and 4.11 µM [falling, partial curve] under setting [1].
In the case of `c1ccc2c(-c3nc(-c4ccncc4)no3)cccc2c1`, the cell number change was -27.9%. For the same molecule, the AC50 under setting [1] is 29.1 µM [falling, single point].
As for `COCCCNC(=S)Nc1cccc2ncccc12`, the cell number change was -47.1%.
Take `COc1ccc(OCc2nn3c(-c4cccc(OC)c4)nnc3s2)cc1`: the cell number change is -12.5%. In addition, under setting [1], the AC50 is 0.092 µM [falling, single point].
In the case of `CCn1c(SCC(=O)NCc2ccc3c(c2)OCO3)nnc1-c1ccco1`, the cell number change amounted to 29.5%. For the same molecule, under setting [1], the concentration at half-maximal activity (AC50) was 1.3 µM [falling, full curve].
Take `c1ccc(CCNCCOc2ccccc2)cc1`: the cell number change was 9.09%.
For the molecule `CCC(c1nnc(SCC(=O)N2CC3(C)CC2CC(C)(C)C3)o1)N(C)C` (stereo not drawn), the cell number change was -1.88%. The AC50 under setting [1] is 2.31 µM [falling, single point].

Values taken from PubChem BioAssay AID2685 (National Center for Advancing Translational Sciences (NCATS), 2010).
